Test results reported in patent US20020115594A1, “Peptide antagonists at glutamate and NMDA receptors” (priority 1993, published 2002).
At least one structure is not confirmed: it was looked up by name or label, or the drawing left a doubt. Marks after values point to notes of the source that are not given here.

Legend:
[1] = tested on: GnRH secretion by hypothalamic explants; experiment: In vitro GnRH secretion by hypothalamic explants induced by veratridine (static incubation, GnRH radioimmunoassay); assay type: cell-based, rat; details: for GnRH secretion induced by veratridine 5.10^−5 M: 50-day-old male rats, mean, n = 6
Experimental: The hypothalamic explants of male Wistar rats were studied individually using a static incubation system described earlier (1-3, 9). The total incubation volume of each chamber (0.5 ml) was sampled and renewed every 7.5 min. Using these fractions, the radioimmunoassay of GnRH was performed as described in detail previously (1, 2). The secretion of GnRH was studied either in the absence of any secretagogue or during the 7.5-min exposure to 5.10^−5 M of veratridine, a depolarizing agent opening the Na^+ channel, or 5.10^−2 M of kainate or N-methyl-D, L-aspartate (NMA) which are agonists of distinct subtypes of glutamate receptors. All these products were bought from Sigma, St Louis, Mo. At 25 and 50 days, veratridine was used repeatedly at 37.5-min intervals. At 15 days, veratridine was used at 52.5-min intervals, i.e. beyond the period of refractoriness caused by the inhibitory autofeedback of GnRH(11). The secretory response of GnRH was calculated as the difference between the concentration measured immediately before and during exposure to the secretagogue.
(§1) We studied the effects of the in-vitro exposure to increasing concentrations of recombinant hIGF-I (Kabi-Pharmacia, Stockholm, Sweden) or its two subproducts, (1-3)IGF-I (Peninsula, Merseyside, England) and (4-70)IGF-I (Gropep, Adelaide, Australia). We also studied the effects of other peptides. The GnRH fragments and analogs included (1-5) GnRH (UCB, Brussels, Belgium), (2-10)GnRH (Sigma, St Louis, Mo., USA) and (1-9)GnRHa (D-TRP^6-PRO^9-N-Ethylamide GnRH) a GnRH agonist kindly provided by Dr J Rivier (The Salk Institute, California, USA). The bovine Proinsulin and its subproducts included the C-peptide of insulin and insulin itself (Novo-Nordisk, Copenhagen, Denmark). Finally, the GRF-related peptides included (1-43) rat GRP (Bachem, Bubendorf, Switzerland), (1-37) human GRF (Peninsula, Merseyside, England) and (1-29)human GRF (Kabi Pharmacia, Stockholm, Sweden). AP-5 (DL-2-amino-5-phosphonovaleric acid, Sigma), a selective antagonist at NMDA receptors and DNQX (6,7-dinitro-quinoxaline-2,3-dione, Tocris Neuramin, Buckhurst Hill, United Kingdom) a selective antagonist at kainate receptors, were also used. The different peptides or antagonists were used for 15 min, i.e. the 7.5-min fraction before and during exposure to veratridine. We also studied the effects of a single s.c. injection of IGF-I or its subproducts in 15 or 50 day-old rats. […] At that time, the serum was collected for the assay of IGF-I using a method described elsewhere (15) and testosterone was measured as well using a standard RIA (Sorin Biomedica). […] The occurrence of significant GnRH secretory pulses was determined using the pulsar program (2, 3). […]

[2] = tested on: GnRH secretion by hypothalamic explants; experiment: Ex vivo veratridine-induced GnRH secretion by hypothalamic explants after in-vivo s.c. injection; parameters: species or system rat
Excerpt: as §1, with “used.” for “used. The different peptides or antagonists were used for 15 min, i.e. the 7.5-min fraction before and during exposure to veratridine. We also studied the effects of a single s.c. injection of IGF-I or its subproducts in 15 or 50 day-old rats.”

## NCC(=O)N1CCC[C@H]1C(=O)N[C@@H](CCC(=O)O)C(=O)O [(1-3)IGF-I, gly-pro-glu]
[1]; 50-day-old explants
  concentration sufficient to suppress the secretion of GnRH induced by veratridine: 10^−10 M
[1]; (1-3)IGF-I 10^−10 M
  GnRH secretion induced by veratridine 5.10^−5 M: 11^a ± % of controls
[1]; +NMA 5.10^−4 M +(1-3)IGF-I 10^−1 M
  GnRH secretion induced by veratridine 5.10^−5 M: 55^c ± % of controls
[1]; explants at 25 days, read-out: IC50, inhibition of GnRH secretory response to veratridine (converted)
  IC50: 4 nM
[2]; 0.004 mg/kg s.c., 50-day-old rats
  effect on GnRH response to veratridine after injection: inhibition
[2]; s.c. injection, higher doses at 15 days, FIG. 3
  ex vivo effectiveness on veratridine-induced GnRH secretion at 15 and 50 days: effective at both ages
